Source: patent publication US20020098516A1
These are yes or no findings as the source states them, for the method shown. Some results given as binding are weak or reduced against the parent protein; the word gives no strength.

The chains behind the UniProt entries cited, without tags or fusion partners. Where a name states a change or a piece, a line headed by the entry shows the natural chain unless it says otherwise.
UniProt P02463: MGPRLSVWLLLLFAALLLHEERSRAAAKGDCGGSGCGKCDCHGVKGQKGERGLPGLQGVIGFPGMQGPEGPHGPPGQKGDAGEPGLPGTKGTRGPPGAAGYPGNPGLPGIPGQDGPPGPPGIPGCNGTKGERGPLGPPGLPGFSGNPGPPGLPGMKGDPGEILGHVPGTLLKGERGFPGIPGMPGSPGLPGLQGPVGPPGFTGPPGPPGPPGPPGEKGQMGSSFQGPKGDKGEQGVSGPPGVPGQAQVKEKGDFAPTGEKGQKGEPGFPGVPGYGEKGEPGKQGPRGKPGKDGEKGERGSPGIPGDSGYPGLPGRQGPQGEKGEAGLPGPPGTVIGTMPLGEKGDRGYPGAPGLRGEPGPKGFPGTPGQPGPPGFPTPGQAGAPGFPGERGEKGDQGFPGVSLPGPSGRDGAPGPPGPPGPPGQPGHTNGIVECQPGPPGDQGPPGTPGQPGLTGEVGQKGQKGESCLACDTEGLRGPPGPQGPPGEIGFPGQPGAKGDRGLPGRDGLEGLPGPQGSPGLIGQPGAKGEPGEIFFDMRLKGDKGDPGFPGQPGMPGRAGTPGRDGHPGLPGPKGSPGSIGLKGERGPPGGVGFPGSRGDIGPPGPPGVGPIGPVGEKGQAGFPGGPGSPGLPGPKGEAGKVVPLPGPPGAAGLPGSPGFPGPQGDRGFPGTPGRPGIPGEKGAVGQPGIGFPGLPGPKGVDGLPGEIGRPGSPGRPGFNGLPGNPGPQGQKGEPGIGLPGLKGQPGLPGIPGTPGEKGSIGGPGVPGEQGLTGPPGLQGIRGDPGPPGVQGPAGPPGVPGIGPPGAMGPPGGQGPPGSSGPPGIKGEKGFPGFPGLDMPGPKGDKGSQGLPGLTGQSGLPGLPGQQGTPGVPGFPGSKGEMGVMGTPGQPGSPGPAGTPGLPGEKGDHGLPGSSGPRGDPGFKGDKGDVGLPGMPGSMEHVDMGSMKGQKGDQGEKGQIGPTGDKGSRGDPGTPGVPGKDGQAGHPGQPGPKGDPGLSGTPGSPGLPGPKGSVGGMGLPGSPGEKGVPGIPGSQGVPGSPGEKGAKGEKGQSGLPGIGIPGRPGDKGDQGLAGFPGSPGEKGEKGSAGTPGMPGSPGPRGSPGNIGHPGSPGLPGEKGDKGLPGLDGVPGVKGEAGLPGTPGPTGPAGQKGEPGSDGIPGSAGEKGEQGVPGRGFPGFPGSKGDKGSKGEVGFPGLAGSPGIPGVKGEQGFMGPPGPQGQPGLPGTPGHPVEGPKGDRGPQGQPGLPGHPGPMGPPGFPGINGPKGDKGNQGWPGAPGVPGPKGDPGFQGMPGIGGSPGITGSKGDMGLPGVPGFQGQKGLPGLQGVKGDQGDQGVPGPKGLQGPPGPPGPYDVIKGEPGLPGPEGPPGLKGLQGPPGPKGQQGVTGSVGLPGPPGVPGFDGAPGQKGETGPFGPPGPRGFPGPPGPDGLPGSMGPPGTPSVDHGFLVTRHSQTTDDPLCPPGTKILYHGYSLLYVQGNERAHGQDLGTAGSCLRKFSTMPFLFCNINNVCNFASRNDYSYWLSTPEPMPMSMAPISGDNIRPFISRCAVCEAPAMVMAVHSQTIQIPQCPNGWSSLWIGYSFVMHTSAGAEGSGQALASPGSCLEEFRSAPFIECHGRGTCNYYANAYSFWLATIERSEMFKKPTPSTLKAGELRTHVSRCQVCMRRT
UniProt P08122: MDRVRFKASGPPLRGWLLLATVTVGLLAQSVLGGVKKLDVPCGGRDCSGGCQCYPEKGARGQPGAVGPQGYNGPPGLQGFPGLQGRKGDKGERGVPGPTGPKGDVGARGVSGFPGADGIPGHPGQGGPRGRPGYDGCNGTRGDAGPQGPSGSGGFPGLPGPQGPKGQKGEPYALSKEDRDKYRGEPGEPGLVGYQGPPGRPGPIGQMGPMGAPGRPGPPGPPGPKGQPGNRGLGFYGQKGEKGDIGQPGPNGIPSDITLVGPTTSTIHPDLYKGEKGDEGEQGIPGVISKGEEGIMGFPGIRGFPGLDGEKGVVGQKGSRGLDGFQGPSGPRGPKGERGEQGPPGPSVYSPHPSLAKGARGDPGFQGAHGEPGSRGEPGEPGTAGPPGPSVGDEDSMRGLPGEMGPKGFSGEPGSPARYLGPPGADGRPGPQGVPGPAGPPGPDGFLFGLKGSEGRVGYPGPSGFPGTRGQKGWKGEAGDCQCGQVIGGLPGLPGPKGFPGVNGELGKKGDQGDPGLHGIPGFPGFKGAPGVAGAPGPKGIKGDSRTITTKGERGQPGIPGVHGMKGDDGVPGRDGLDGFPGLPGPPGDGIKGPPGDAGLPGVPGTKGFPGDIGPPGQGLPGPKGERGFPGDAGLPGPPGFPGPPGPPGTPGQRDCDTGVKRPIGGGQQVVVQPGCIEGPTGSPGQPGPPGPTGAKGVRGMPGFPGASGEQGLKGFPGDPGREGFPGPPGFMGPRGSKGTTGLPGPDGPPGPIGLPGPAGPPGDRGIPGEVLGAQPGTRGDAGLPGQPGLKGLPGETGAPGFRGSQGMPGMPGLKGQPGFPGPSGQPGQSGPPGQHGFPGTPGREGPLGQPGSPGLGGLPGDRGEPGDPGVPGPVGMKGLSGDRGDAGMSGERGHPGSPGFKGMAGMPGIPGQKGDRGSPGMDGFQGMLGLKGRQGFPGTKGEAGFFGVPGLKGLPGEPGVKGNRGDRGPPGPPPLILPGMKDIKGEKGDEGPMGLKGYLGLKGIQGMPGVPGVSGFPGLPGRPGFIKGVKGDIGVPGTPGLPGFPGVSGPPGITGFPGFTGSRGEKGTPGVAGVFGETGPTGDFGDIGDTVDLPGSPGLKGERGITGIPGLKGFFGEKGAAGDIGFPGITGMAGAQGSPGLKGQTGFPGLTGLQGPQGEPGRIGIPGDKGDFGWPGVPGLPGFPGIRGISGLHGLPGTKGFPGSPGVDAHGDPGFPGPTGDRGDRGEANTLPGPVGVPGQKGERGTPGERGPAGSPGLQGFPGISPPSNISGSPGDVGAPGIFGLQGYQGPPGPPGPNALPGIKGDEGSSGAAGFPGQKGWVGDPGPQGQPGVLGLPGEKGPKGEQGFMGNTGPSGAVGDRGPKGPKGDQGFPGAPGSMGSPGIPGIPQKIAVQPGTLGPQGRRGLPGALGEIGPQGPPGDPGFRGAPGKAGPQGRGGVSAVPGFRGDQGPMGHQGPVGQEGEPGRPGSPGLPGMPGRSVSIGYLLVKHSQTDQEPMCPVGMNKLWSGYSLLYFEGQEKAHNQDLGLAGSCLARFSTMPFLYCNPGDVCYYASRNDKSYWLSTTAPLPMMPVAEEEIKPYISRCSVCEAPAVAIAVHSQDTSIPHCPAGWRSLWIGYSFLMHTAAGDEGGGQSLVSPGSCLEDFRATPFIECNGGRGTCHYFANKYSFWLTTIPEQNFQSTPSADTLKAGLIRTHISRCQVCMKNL

Molecular target: type IV collagen (murine, α1(IV) and α2(IV) chains, from tissue matrix extracts) (murine) (UniProt P02463+P08122)
Experiment: direct immunoprecipitation of tissue extracts with anti-collagen α1(IV) antibodies, western blot with antibody 2

B1: usherin protein (mouse, native, from tissue extracts) (protein, UniProt Q2QI47-2 35-1461, looked up)
chain: VFPRLENVGAFRKVSTVPTHATCGFPGPSTFCRSPVAAEHVQLCTERLCIQDCPYRSASPLYTALLEGLRSCIPADDGDLHPYSRSSSVSFMFGSHQNCPSLRAPRLAAELTLAVWLKLEQGGTMCVIEKTVDGQIVFKVTISEKETMFYYRTVNGLQPPIKVMTPGRILMKKWIHLTVQVHQTAISFFVDGLEENSTAFDTRTLHDSVTDSVSSVIQVGQSLNGSEQFVGRMQDFRLYNVSLTNREILEVFSGDFPHLHIQPHCRCPGSHPRVHPSVQQYCIPNGAGDTPEHRMSRLNPEAHPLSFINDDDVATSWISHVFTNITQLYEGVAISIDLENGQYQVLKVITQFSSLQPVAIRIQRKKADSSPWEDWQYFARNCSVWGMKDNEDLENPNSVNCLQLPDFIPFSHGNVTFDLLTSGQKHRPGYNDFYNSSVLQEFMRATQIRLHFHGQYYPAGHTVDWRHQYYAVDEIIVSGRCQCHGHAETCDRTRRPYRCLCSPHSFTEGPQCDRCSPLYNDKPFRSGDNVNAFNCKPCQCHGHASSCHYDASVDPFPLEHNRGGGGVCDDCQHHTTGRHCESCQDYFYRPVGADPAAPDACKLCDCNRAGTRNGSLHCDPIGGQCDCKRRVSGRQCLQCQDGFYDLQALDPDGCRPCNCNPSGTVDGDITCHQNSGQCSCKANVIGLRCNRCNFGFKFLQSFNGDGCEPCQCNLHGSVNQLCDPLSGQCACKKEAKGLKCDSCRENFYGLPWSACEVCDCSKAGSQPGTVCDTETGQCVCKPNVGGRQCSQCKAGYFNLYQNDSHLCLTCNCEKMGTVNGSLRCDKSTGQCPCKLGVTGLRCHQCKPHRFNLTMDNPQGCQACDCDSLGTLPGSMCDPISGQCLCLPHRQGRRCEQCQPGFYSSPSNATGCLPCLCHTAGAVSHICNSVTGQCSCHDPSTTGRSCHQCQESYFRFDPLTGRCRPCHCHVAGASNGTCDAVTGQCFCKEFVTGSKCDTCVPGASHLDVNNLLGCSKTPSQQPPPRGWVQSSSTINVSWSPPECPNAHWLTYTLFRNGSEIYTTEDEHPYYTQYFLDTSLSPHTAYSYYIETSNVHSSTRSIPVIYETKPEVSEGHLNLTHIIPVGSDSITLTWTGLSNSSDPVAKYVLSCTPVDSTEPCVSYEGPETSATIWNLVPFTQYCFSVQGCTNESCFYSLPIIVTTAQAPPQTQGPPTVWKISPTELRIEWSPPVDSNGIIISYELYMRRWLSTEESLVFESHGLVSSHSALQSVNPSKNLLQQPQASTFISGLEPHTEYAFRVLAVNMAGRVSSAWASERTGESVPVFMAPPSVSPLSPHSLSVSWEKPAENFTRGEIIGYKISMVSEHFPLHDVPVMCSKMVHFAKSQDQSYIVRGLEPYRTYSFTVSLCDSVGCVTSALGSGQTLAAGK
In the case of B1, the binding is reported as “binds”.
